PubChem BioAssay AID1224830 – NIAID | 2016
In all, the deposit lists about 18,000 reagents; shown is a part drawn at random. Of all reagents, about 2,900 (16%) are marked active. 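Calls are made per well; low scores hint the gene aids the LPS response, high scores that it dampens it.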 Entries without a mark were called inactive. Repeated entries: four replicate wells of each siRNA pool. No sequences are given here.

Assay: 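Regulators of TLR4 signalling towards TNF-alpha in macrophage-like cells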 (primary screen)
System: human THP-1 monocytic leukaemia cells, TNF dual-luciferase reporter clone, PMA-differentiated to macrophage-like cells
Reagents: siRNA pool against human genes, 50 nM
Duration: LPS for 4 h, given about 3 days after siRNA transfection
Challenge: bacterial LPS (TLR4 ligand), 10 ng/ml
Read-out: 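Ratio of firefly to renilla light, scaled to the plate median and expressed as a robust z-score per replicate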
Direction: TNF reporter robust z-score: higher = stronger TNF reporter response to LPS
Rule for the call: 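Each well counts as active if its z-score is over 2.8 or under -1.5; controls are left without a call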

| gene | PubChem SID | TNF reporter robust z-score |
| --- | --- | --- |
| VN1R5 | SID315463934 | 0.97 |
| VN1R5 | SID315463934 | 1.47 |
| VN1R5 | SID315463934 | 1.32 |
| VN1R5 | SID315463934 | 0.93 |
| SPHKAP | SID315459741 | 2.51 |
| SPHKAP | SID315459741 | 2.97 (active) |
| SPHKAP | SID315459741 | 1.68 |
| SPHKAP | SID315459741 | 2.96 (active) |
| PHLDA3 | SID315455367 | 1.67 |
| PHLDA3 | SID315455367 | 2.55 |
| PHLDA3 | SID315455367 | 3.28 (active) |
| PHLDA3 | SID315455367 | 2.65 |
| TBK1 | SID315456149 | -0.1 |
| TBK1 | SID315456149 | 0.78 |
| TBK1 | SID315456149 | -0.11 |
| TBK1 | SID315456149 | 0.42 |
| IMPDH2 | SID315449500 | -0.81 |
| IMPDH2 | SID315449500 | 1.24 |
| IMPDH2 | SID315449500 | 1.83 |
| IMPDH2 | SID315449500 | 0.02 |
| POC1A | SID315455530 | 0.76 |
| POC1A | SID315455530 | 0.08 |
| POC1A | SID315455530 | 0.03 |
| POC1A | SID315455530 | 0.13 |
| EPB41L5 | SID315458537 | 0.75 |
| EPB41L5 | SID315458537 | 1.84 |
| EPB41L5 | SID315458537 | 0.45 |
| EPB41L5 | SID315458537 | 2.04 |
| MRPL27 | SID315456593 | 0.98 |
| MRPL27 | SID315456593 | 0.75 |
| MRPL27 | SID315456593 | 2.08 |
| MRPL27 | SID315456593 | 1.37 |
| PCBP2 | SID315450442 | -0.76 |
| PCBP2 | SID315450442 | 0.03 |
| PCBP2 | SID315450442 | -0.12 |
| PCBP2 | SID315450442 | -0.01 |
| SMIM19 | SID315461277 | -0.52 |
| SMIM19 | SID315461277 | 0.77 |
| SMIM19 | SID315461277 | -0.34 |
| SMIM19 | SID315461277 | 0.03 |
| ANAPC2 | SID315456192 | 0.4 |
| ANAPC2 | SID315456192 | 0.95 |
| ANAPC2 | SID315456192 | 0.64 |
| ANAPC2 | SID315456192 | 1.16 |
| ADCK1 | SID315458291 | 0.14 |
| ADCK1 | SID315458291 | 0.29 |
| ADCK1 | SID315458291 | 0.62 |
| ADCK1 | SID315458291 | 1.04 |
| PDCL2 | SID315461935 | -1.32 |
| PDCL2 | SID315461935 | -0.13 |
| PDCL2 | SID315461935 | 0.22 |
| PDCL2 | SID315461935 | -0.37 |

Targets listed so far whose target name begins with A or a (8):
| gene | PubChem SID | TNF reporter robust z-score |
| --- | --- | --- |
| ANAPC2 | SID315456192 | 0.4 |
| ANAPC2 | SID315456192 | 0.95 |
| ANAPC2 | SID315456192 | 0.64 |
| ANAPC2 | SID315456192 | 1.16 |
| ADCK1 | SID315458291 | 0.14 |
| ADCK1 | SID315458291 | 0.29 |
| ADCK1 | SID315458291 | 0.62 |
| ADCK1 | SID315458291 | 1.04 |

Additional entries follow.
| gene | PubChem SID | TNF reporter robust z-score |
| --- | --- | --- |
| TOR4A | SID315457218 | -1.27 |
| TOR4A | SID315457218 | -1.3 |
| TOR4A | SID315457218 | -1.04 |
| TOR4A | SID315457218 | -1.14 |
| HERC6 | SID315457340 | -0.69 |
| HERC6 | SID315457340 | 0.18 |
| HERC6 | SID315457340 | -0.17 |
| HERC6 | SID315457340 | 0.92 |
| ZNF772 | SID315464752 | -0.22 |
| ZNF772 | SID315464752 | -0.78 |
| ZNF772 | SID315464752 | -0.61 |
| ZNF772 | SID315464752 | 0 |
| CRYBG2 | SID315457374 | -1.31 |
| CRYBG2 | SID315457374 | -0.66 |
| CRYBG2 | SID315457374 | -1.45 |
| CRYBG2 | SID315457374 | -0.8 |
| KLHL25 | SID315458917 | 0.57 |
| KLHL25 | SID315458917 | -0.33 |
| KLHL25 | SID315458917 | 0.13 |
| KLHL25 | SID315458917 | 0.49 |
| CDIN1 | SID315460396 | -0.09 |
| CDIN1 | SID315460396 | -1.5 |
| CDIN1 | SID315460396 | -1.19 |
| CDIN1 | SID315460396 | 0.03 |
| MANBA | SID315449875 | 0.4 |
| MANBA | SID315449875 | 0.94 |
| MANBA | SID315449875 | 0.31 |
| MANBA | SID315449875 | -0.34 |
| ZNF638 | SID315456035 | -0.02 |
| ZNF638 | SID315456035 | 0.08 |
| ZNF638 | SID315456035 | -0.84 |
| ZNF638 | SID315456035 | 0.51 |
| BRD9 | SID315459112 | 2.56 |
| BRD9 | SID315459112 | -0.36 |
| BRD9 | SID315459112 | -0.09 |
| BRD9 | SID315459112 | 0.5 |
| WDR33 | SID315457609 | -0.51 |
| WDR33 | SID315457609 | -0.61 |
| WDR33 | SID315457609 | -1.59 (active) |
| WDR33 | SID315457609 | -0.07 |
| TAF11 | SID315451746 | -1.12 |
| TAF11 | SID315451746 | -1.71 (active) |
| TAF11 | SID315451746 | -1.09 |
| TAF11 | SID315451746 | -0.26 |
| SASS6 | SID315462796 | 3.35 (active) |
| SASS6 | SID315462796 | 4.83 (active) |
| SASS6 | SID315462796 | 6.46 (active) |
| SASS6 | SID315462796 | 6.42 (active) |
| EIF2S2 | SID315452909 | -1.99 (active) |
| EIF2S2 | SID315452909 | -1.52 (active) |
| EIF2S2 | SID315452909 | -2.09 (active) |
| EIF2S2 | SID315452909 | -1.29 |
| COL17A1 | SID315448035 | -1.43 |
| COL17A1 | SID315448035 | -1.14 |
| COL17A1 | SID315448035 | -1.37 |
| COL17A1 | SID315448035 | -1.64 (active) |
| MAP1B | SID315449879 | 0.02 |
| MAP1B | SID315449879 | -0.31 |
| MAP1B | SID315449879 | -1.25 |
| MAP1B | SID315449879 | -0.34 |
| DRC2 | SID315460714 | 0.9 |
| DRC2 | SID315460714 | 1.96 |
| DRC2 | SID315460714 | 0.3 |
| DRC2 | SID315460714 | 0.68 |
| MCAT | SID315456051 | 1.41 |
| MCAT | SID315456051 | 9.05 (active) |
| MCAT | SID315456051 | 1.76 |
| MCAT | SID315456051 | 0.53 |
| MYL12A | SID315454247 | -0.32 |
| MYL12A | SID315454247 | -0.14 |
| MYL12A | SID315454247 | 1.23 |
| MYL12A | SID315454247 | 1.73 |
| ARNT | SID315447408 | -1.21 |
| ARNT | SID315447408 | -1.12 |
| ARNT | SID315447408 | -1.28 |
| ARNT | SID315447408 | 0 |
| EMB | SID315461944 | -0.75 |
| EMB | SID315461944 | 0.21 |
| EMB | SID315461944 | -0.36 |
| EMB | SID315461944 | -0.26 |
| ZBED2 | SID315459280 | 0.29 |
| ZBED2 | SID315459280 | 0.39 |
| ZBED2 | SID315459280 | 0.25 |
| ZBED2 | SID315459280 | 0.32 |
| LOC652859 (retired record) | SID315465131 | -0.01 |
| LOC652859 (retired record) | SID315465131 | 0.95 |
| LOC652859 (retired record) | SID315465131 | 0.84 |
| LOC652859 (retired record) | SID315465131 | 0.93 |
